LiHisRS: 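Enzyme assay of histidyl-tRNA synthetase; the read-out is not stated. Target: Histidine-tRNA ligase, Leishmania infantum (UniProt A4I591). Compounds at 30 µM. Direction is inferred from retests: higher values go with stronger inhibition. The assay is labelled LdHisRS but filed under L. infantum. Size under these conditions: about 69,000 compounds, about 410 of them at 50% or above in at least one test.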
TcHisRS: 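Enzyme assay of histidyl-tRNA synthetase; the read-out is not stated. Target: Histidine-tRNA ligase, Trypanosoma cruzi CL Brener (UniProt Q4DA54). Tested at 30 µM. Direction is inferred from retests: higher values go with stronger inhibition. Size under these conditions: about 69,000 compounds, about 31 of them at 50% or above in at least one test.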
ClpP1P2: 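ClpP1P2, Mycobacterium tuberculosis (UniProt P9WPC5 and UniProt P9WPC3). Protease assay of ClpP1P2, read by the AMC dye that it sets free. Concentration: 50 µM. Higher reads as stronger inhibition, judged from the few compounds that gave an IC50. Most other retested compounds had strongly negative values. Of about 69,000 compounds tested this way, about 10 (0.015%) reached 50% or more in at least one test.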

Protein sequences, listed by entry. Tags and fused reporters are not part of them. Residues count along the entry.
UniProt A4I591, 1-473: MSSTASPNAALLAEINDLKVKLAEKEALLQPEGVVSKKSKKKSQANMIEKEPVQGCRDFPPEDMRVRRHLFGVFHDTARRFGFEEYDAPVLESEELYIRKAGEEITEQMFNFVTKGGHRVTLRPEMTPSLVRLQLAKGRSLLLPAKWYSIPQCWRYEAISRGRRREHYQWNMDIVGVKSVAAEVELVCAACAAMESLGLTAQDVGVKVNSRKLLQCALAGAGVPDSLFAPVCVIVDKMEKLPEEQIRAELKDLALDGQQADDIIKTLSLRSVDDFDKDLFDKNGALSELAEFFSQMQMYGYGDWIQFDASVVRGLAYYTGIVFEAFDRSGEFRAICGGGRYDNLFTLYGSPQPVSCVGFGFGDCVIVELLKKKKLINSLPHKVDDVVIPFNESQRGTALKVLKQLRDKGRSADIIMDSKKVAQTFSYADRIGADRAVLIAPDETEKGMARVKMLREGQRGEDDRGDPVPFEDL
UniProt Q4DA54, 1-478: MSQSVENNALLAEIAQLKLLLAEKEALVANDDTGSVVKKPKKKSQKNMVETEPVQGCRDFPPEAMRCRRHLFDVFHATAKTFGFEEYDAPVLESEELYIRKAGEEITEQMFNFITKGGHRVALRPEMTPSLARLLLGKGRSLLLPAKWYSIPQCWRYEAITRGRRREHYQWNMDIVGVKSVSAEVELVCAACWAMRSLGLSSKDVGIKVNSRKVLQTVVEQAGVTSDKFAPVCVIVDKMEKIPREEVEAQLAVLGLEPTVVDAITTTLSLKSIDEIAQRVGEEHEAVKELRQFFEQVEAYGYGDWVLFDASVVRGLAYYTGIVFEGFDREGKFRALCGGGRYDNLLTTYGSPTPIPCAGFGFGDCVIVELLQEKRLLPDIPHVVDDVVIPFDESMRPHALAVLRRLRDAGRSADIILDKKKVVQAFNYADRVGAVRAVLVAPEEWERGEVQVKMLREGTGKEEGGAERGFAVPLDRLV
UniProt P9WPC5, whole entry: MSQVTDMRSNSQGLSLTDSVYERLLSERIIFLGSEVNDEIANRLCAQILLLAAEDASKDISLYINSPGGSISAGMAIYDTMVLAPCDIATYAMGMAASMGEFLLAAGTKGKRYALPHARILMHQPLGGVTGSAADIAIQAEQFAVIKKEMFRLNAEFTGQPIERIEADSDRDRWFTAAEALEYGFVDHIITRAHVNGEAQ
UniProt P9WPC3, whole entry partner: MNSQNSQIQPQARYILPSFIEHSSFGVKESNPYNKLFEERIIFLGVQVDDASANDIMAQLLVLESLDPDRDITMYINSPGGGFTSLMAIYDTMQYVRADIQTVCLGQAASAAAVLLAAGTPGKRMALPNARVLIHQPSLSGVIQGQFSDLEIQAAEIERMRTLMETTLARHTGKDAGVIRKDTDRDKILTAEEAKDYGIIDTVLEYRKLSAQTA

Values are the deposited “Percent Effect”, in %.
The controls that fix the scale are not given in the record; negative values are as filed.
This is an unselected part of the compounds tested.

SMILES	LiHisRS	TcHisRS	ClpP1P2
c1ccc(-c2cc(CN3CCCC(Cn4cncn4)C3)on2)cc1 (stereo unspecified)	8.547%	4.274%	-21.29%
CCc1nnc(CN2CCC(C3CCCCCN3C(=O)C3CC3)CC2)o1 (stereo unspecified)	7.692%	8.046%	-8.714%
NC(=O)Cc1ccc(OCc2noc(C(=O)N3CCCC3)n2)cc1	14.29%	5.941%	3.293%
Cc1c(CNS(=O)(=O)c2cccc(COC(C)C)c2)cnn1C	-26.47%	10.05%	6.34%
CC1CN(C(=O)CN(Cc2ccco2)C2CC2)CCO1 (stereo unspecified)	2.667%	0.3774%	-4.697%
CC(NC(=O)CN(C)S(C)(=O)=O)c1nnc2n1CCCCC2 (stereo unspecified)	-6.25%	-1.141%	20.68%
Cc1cccc(C2(C(=O)NS(=O)(=O)c3cnn(C)c3)CCCC2)c1	5.714%	3.093%	3.464%
CN(C)C(=O)CNC(CC(F)(F)F)c1ccc(Cl)cc1 (stereo unspecified)	-3.175%	6.061%	-6.836%
c1cncc(OC[C@@H]2CC[C@H]3[C@H](CCN3Cc3cccs3)O2)c1	-6.569%	4.918%	6.573%
Cc1n[nH]cc1CNC1(c2ccc(F)cc2)CCCC1	16.44%	1.587%	6.706%
CCN(Cc1cccc(Cl)c1)Cc1ncc(C(C)(C)C)o1	2.381%	1.176%	-12%
CN(Cc1nc2ccccc2c(=O)[nH]1)C[C@@H]1CCCN2CCCC[C@H]12	-2.857%	11.34%	0.09268%
FC1(F)CCN(Cc2ccncc2)CC12CCN(c1cccnc1)C2 (stereo unspecified)	19.09%	8.466%	-1.436%
CN(C)C(=O)N1CCC2(CC1)CCN(c1ncccn1)C2	13.89%	10.28%	-1.603%
CCCNS(=O)(=O)c1ccc2[nH]c(=O)cc(C)c2c1	3.614%	4.878%	-12.16%
CCNC(=O)N1CCC2(CC1)CCn1c(C3CC3)cnc12	1.709%	8.589%	6.187%
NC(=O)C(NC(=O)c1cc(Cl)c[nH]1)c1ccccc1 (stereo unspecified)	12%	-1.734%	-4.973%
Cc1nnc2n1CCN(Cc1ncc(-c3ccc(Cl)cc3)o1)C2	16.8%	0.3802%	4.038%
CC(C)(CNc1cc(F)ccc1F)S(C)(=O)=O	2.74%	3.279%	1.37%
CC1CC(=O)c2cc(C(=O)N3CCc4ccccc43)c(=O)[nH]c2C1 (stereo unspecified)	22.5%	2.484%	-3.404%
CC(C)c1nc2c(n1C)CCN(CC(=O)Nc1ccc(Cl)cn1)C2	18.67%	-1.887%	10.76%
O=C(NCCCn1nc2ccccn2c1=O)Nc1ccccc1Cl	11.4%	-53.78%	-15.48%
c1ccc2c(Cc3nnc([C@H]4CCN(CC5CC5)C4)o3)c[nH]c2c1	24.32%	0.4975%	-7.249%
Cc1cccnc1NC(=O)CC1(Cn2cnnn2)CCCCC1	25.71%	2.174%	-12.77%
Cc1ccc2c(c1)OC1(NC2=O)C(=O)N(C)c2ccccc21 (stereo unspecified)	21.51%	3.704%	0.4424%
COC(=O)c1sc(C(NC(=O)c2ccccc2)C2CC2)nc1C (stereo unspecified)	22.22%	10.3%	-5.465%
COc1ccccc1Oc1ncccc1CNC(=O)[C@H](N)CC(C)(C)C	6.061%	9.524%	1.773%
CN(C)c1cc2c(nn1)CCN(C(=O)C1Cc3ccccc3S1)C2 (stereo unspecified)	32.58%	9.023%	-5.233%
CCOC(=O)N1CC(=O)N(CCc2ccccc2)CC(O)C1 (stereo unspecified)	10.2%	6.742%	13.66%
Cn1ccnc1C(=O)NCc1cc(=O)n2c(n1)CN(CC1CC1)CCC2	16.24%	3.743%	4.149%
O=C(NCc1ccco1)c1cccc(C(=O)NCc2ccco2)n1	18.42%	4.878%	-19.42%
COc1cccc(C(=O)Nc2n[nH]c(C3CCCO3)n2)c1 (stereo unspecified)	23.08%	9.278%	-0.6627%
Cc1cccc2c(=O)c(C(=O)N3CCCC4(CN(C)C(=O)O4)C3)c[nH]c12 (stereo unspecified)	15.15%	4.348%	6.886%
Cc1nc(C)c(CC(=O)NCc2ccccc2F)s1	10.43%	0%	11.98%
Cc1nc(C2CCCN2Cc2ccn(C)c(=O)c2)no1 (stereo unspecified)	17.59%	11.44%	-12.06%
CN1CCN(C(=O)C2SCCc3sccc32)CC1 (stereo unspecified)	2.679%	0%	-14.47%
Cc1cc(CN2CCC3(CC2)COC(COCC2CC2)C3)no1 (stereo unspecified)	19.8%	8.543%	3.753%
Cc1nc(C)n(CC2CCCN(CCOc3ccccc3F)C2)n1 (stereo unspecified)	13.79%	3.39%	-30.82%
CCOc1ncccc1CNC(=O)Nc1ccc(OC)c(OC)c1	3.846%	1.714%	-22.85%
Cc1nc(C2(O)CCCNCC2)sc1CCOc1ccccc1 (stereo unspecified)	14%	7.491%	19.77%
OCCN1CCC(F)(F)C2(CCN(c3cccnc3)C2)C1 (stereo unspecified)	13.64%	10.58%	-17.4%
CCOCC1CC2(CCN(C(=O)c3ccc4ccccc4n3)CC2)CO1 (stereo unspecified)	12.73%	15.7%	13.01%
COc1cccc(C2CC(=O)Nc3nc(N)sc32)c1OC (stereo unspecified)	91.43%	70.65%	-4.177%
N[C@@H]1CCN(Cc2cccc(N3CCOCC3)c2)C[C@H]1O	4.8%	1.961%	-23.2%
Cc1nc[nH]c1CN(C)Cc1cnn(-c2ccc(F)cc2)c1	-3.333%	2.609%	-4.517%
CNC(=O)N1CCN(C(=O)C(C)C)CC2(CC(=O)N(C)C2)C1 (stereo unspecified)	5.263%	5.747%	-6.637%
CC(C)Nc1nc2c(cc1C(=O)O)CCN(Cc1ccsc1)CC2	11.11%	10.48%	-21.03%
CCCn1cc(-c2cc(C(=O)N(C)C)c3ccc(OC)cc3n2)cn1	12.94%	7.035%	-40.03%
COCCN1C(=O)CC[C@]12CC[C@@H](NCc1ccc(OC)cc1)CC2	-1.754%	1.075%	3.709%
CC(C)c1ncc(S(C)(=O)=O)c(C2CCCNC2)n1 (stereo unspecified)	22.86%	0.8264%	-9.579%
CC(C)NC(=O)[C@H]1CCS(=O)(=O)[C@@H]2CN(c3ncc(F)cn3)C[C@H]12	17.54%	4.372%	-13.27%
Cc1cnn(CC(C)NCc2cc(=O)n3ccccc3n2)c1 (stereo unspecified)	15%	2.941%	13.48%
Cc1cc2c(=O)n3c(nc2s1)CCN(Cc1c[nH]cn1)CC3	26.32%	3.731%	-5.056%
Cc1cc(N2CCN(C(=O)c3cnn(C(C)C)c3)CC2)nc(N)n1	4.918%	4%	-19.54%
CN(CC(=O)N1CCCC1c1ccccn1)Cc1ccccc1 (stereo unspecified)	12.9%	3.704%	-11.79%
CCC1(O)CCCN(c2nc(-c3ccccn3)nc3c2c(C)nn3C)C1 (stereo unspecified)	21.31%	4%	-8.467%
O=C(N1CCCCC1)N1CCN(CC(O)c2ccc(F)cc2)CC1 (stereo unspecified)	24.8%	3.422%	12.56%
CN(C)CCn1c2c(ccc1=O)CC(NC(=O)NC1CCCC1)CC2 (stereo unspecified)	7.547%	-2.222%	1.058%
CCN(CC)Cc1cn2c(n1)CN(C(=O)Cc1ccsc1)CC2	11.7%	5.025%	1.424%
CCc1cc(NCCNC(=O)c2cccnc2)n2nc(C)c(C)c2n1	15.09%	-5.833%	-13.86%
CNc1cc(N2CCCC2CNCc2csc(C)n2)ncn1 (stereo unspecified)	14.68%	5.882%	-23.35%
COCc1nc(C(=O)N2CCCC2c2ccccc2C)cs1 (stereo unspecified)	18.92%	-4.887%	2.213%
O=C(CCNc1ncccn1)NCc1csc(Br)c1	-4.386%	3.448%	7.363%

Data taken from ChEMBL document CHEMBL3988442, “University of Dundee, Small-Polar-MMV Screening Library” (2021).